Test results: PubChem BioAssay AID743255 (National Center for Advancing Translational Sciences (NCATS), 2014)
Among all 390,000 compounds or so, about 910 (0.23%) were called active. The inconclusive results got no clear call from the source; some entries with a clear call stand among them for comparison. Calls come from the whole dose curve; as a rule, active = well fitted inhibition curve with a large enough effect; inconclusive = small, poorly fitted or top-dose-only effect; inactive = no such curve, though single readings can be large or run the other way. Potencies beside an inconclusive call are fits to weak or partial responses and may not hold up.
% is set by controls: 0 for no effect and ±100 for the full control effect; potency is the fitted concentration of half-maximal effect.
Note: nearly all actives have a fitted effect of over 60% in size.

By UniProt entry, the sequences of proteins in these tests, tags left out. Where a name states a change or a piece, a line headed by the entry shows the natural chain unless it says otherwise.
UniProt O94782: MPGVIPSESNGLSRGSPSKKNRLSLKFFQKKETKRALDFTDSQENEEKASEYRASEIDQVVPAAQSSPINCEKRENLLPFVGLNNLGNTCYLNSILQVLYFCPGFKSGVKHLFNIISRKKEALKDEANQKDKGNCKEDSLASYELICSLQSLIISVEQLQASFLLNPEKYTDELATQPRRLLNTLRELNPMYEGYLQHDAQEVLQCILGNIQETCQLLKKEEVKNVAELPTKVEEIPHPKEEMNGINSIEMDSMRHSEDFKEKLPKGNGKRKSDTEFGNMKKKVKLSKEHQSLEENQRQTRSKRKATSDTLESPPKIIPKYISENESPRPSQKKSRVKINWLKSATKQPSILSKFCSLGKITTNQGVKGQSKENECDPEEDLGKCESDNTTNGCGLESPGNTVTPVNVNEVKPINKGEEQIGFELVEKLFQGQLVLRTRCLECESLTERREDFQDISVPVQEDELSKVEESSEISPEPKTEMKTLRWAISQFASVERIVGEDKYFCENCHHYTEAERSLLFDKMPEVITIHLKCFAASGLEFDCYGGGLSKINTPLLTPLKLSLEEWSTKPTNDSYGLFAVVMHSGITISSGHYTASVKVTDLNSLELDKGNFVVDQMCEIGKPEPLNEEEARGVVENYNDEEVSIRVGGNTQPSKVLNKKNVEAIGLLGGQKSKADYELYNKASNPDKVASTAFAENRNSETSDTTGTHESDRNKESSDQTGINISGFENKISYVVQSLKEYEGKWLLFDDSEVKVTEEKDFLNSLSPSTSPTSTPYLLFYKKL

The molecules below were run against Ubiquitin carboxyl-terminal hydrolase 1 (Homo sapiens) (UniProt O94782) (assay: Inhibitors of USP1/UAF1: Primary Screen). Conditions: recombinant USP1/UAF1, Ub-Rhodamine cleavage fluorescence; activity change, negative = inhibition: at 57.1 µM (top of the series).
Procedure, shortened: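 1 nM enzyme complex + cpd, 15 min RT; start with Ub-Rho 150nM final; kinetic fluorescence ex 480/em 540, 6 reads q60 s. Buffer 50mM HEPES pH 7.8, 0.5mM EDTA, 0.1 mg/ml BSA, 1mM TCEP, 0.01% Tween-20.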
In the case of `Cc1ccc(N2CC(NC(=O)c3ccc(Br)o3)CC2=O)cc1C` (stereo not given), the Potency was inconclusive: 22.4 µM [inhibitor, single point].
`Cc1ccc(S(=O)(=O)N2CCN=C2SCc2ccccc2)cc1` was tested, and the “activity change, negative = inhibition” value was inactive: -20.4%.
In the case of `Cc1ccc2c(c1)c(=O)c(C(=O)c1ccncc1)cn2CC(=O)Nc1ccc(C(C)C)cc1`, the Potency was inconclusive: 7.94 µM [inhibitor, single point].
In the case of `N#Cc1c(C(F)(F)F)cc(-c2ccc(Cl)c(Cl)c2)nc1SCCN1CCOCC1`, the Potency was inconclusive: 35.5 µM [inhibitor, single point].
With `Cc1ccc(C(=O)O)cc1NC(=S)NC(=O)c1ccc(COc2ccccc2)cc1` the Potency was inconclusive: 44.7 µM [inhibitor, partial curve, poor fit].
For `O=C(N[C@H]1C/C=C\C[C@@H](CC(=O)N(CCO)Cc2ccccc2)C(=O)N2CCC[C@@H]2COC1=O)OCC1c2ccccc2-c2ccccc21`, the Potency was inconclusive: 39.8 µM [inhibitor, partial curve].
In the case of `CCc1nn(CC(=O)N2CCN(c3cccc(C(F)(F)F)c3)CC2)c(=O)c2cc3occc3n12`, the “activity change, negative = inhibition” value was inactive: -7.28%.
With `CC(c1ccc(O)cc1)(c1ccc(O)cc1)c1ccc(CCBr)cc1` the Potency was inconclusive: 28.2 µM [inhibitor, partial curve].
In the case of `CC(C)(C)c1cc[n+](C2=C([O-])c3ccccc3C(=O)/C2=N\S(=O)(=O)c2ccccc2)cc1`, the “activity change, negative = inhibition” value was inactive: -8.67%.
`CNC(=O)c1cccc(NC(=O)c2cc(-c3ccccc3)nc3c2cnn3C(C)C)c1` was tested, and the Potency was inconclusive: 79.4 µM [inhibitor, partial curve, poor fit].
For `CCC(C)[C@H](NC(=O)N1CCCC1)C(=O)O` (stereo not given in full), the Potency was inconclusive: 2.82 µM [inhibitor, partial curve].
In the case of `CCOC(=O)c1c(N2C(=O)Nc3cc(Cl)c(Cl)cc3N2O)sc2c1CCCCC2`, the “activity change, negative = inhibition” value was inactive: -7%.
With `COc1ccc(C)cc1NC(=O)C1CCCN(S(=O)(=O)c2ccc3c(c2)oc(=O)n3C)C1` (stereo not given) the “activity change, negative = inhibition” value was inactive: -21%.
For `CN(CC(=O)NCc1ccc2c(c1)OCO2)S(=O)(=O)c1ccc(F)cc1`, the Potency was inconclusive: 35.5 µM [inhibitor, single point].
For `COc1ccc(CNC(=O)c2ccc3c(c2)NC(=O)C(CS(=O)(=O)Cc2ccccc2Cl)N3)cc1` (stereo not given), the Potency was inconclusive: 44.7 µM [inhibitor, partial curve, poor fit].
`COc1cccc(-c2nc(C(N)=O)c3[nH]c(=O)n(-c4ccccc4)c3n2)c1OC` was tested, and the Potency was inconclusive: 35.5 µM [inhibitor, partial curve].
`O=C(CCC1N=C2c3ccccc3N=C(SCC(=O)Nc3ccccc3F)N2C1=O)NCc1cccs1` (stereo not given) was tested, and the Potency was inconclusive: 10 µM [inhibitor, partial curve].
For `COc1cc(OC)cc(C(=O)Nc2ccc3oc(-c4ccc(Cl)cc4)nc3c2)c1`, the Potency was inconclusive: 7.08 µM [inhibitor, full curve, poor fit].
With `CC(=O)c1ccc(OCc2ccccc2)c(C)c1O` the Potency was inconclusive: 5.62 µM [inhibitor, partial curve].
In the case of `Cc1cccc(NC(=O)CSc2cn(CC(=O)N3CCOCC3)c3ccccc23)c1`, the Potency was inconclusive: 0.708 µM [inhibitor, full curve].
In the case of `CCCSc1cc(NCCOC(C)=O)c([N+](=O)[O-])c2nonc12`, the “activity change, negative = inhibition” value was inactive: -14.6%.
For `C=CCC1CCCC(=O)N2CCCC12` (stereo not given), the Potency was inconclusive: 0.282 µM [inhibitor, full curve, poor fit].
In the case of `Cc1nnc(SCc2ccccc2Cl)c2cc3occc3n12`, the “activity change, negative = inhibition” value was inactive: -16.4%.
`CN(Cc1ncc[nH]1)C(=O)c1cc(COc2c(F)cccc2F)on1` was tested, and the “activity change, negative = inhibition” value was inactive: -10.6%.
With `Cc1cc(Nc2ccc(C(C)C)cc2)nc(-n2nc(C)cc2C)n1` the Potency was inconclusive: 17.8 µM [inhibitor, partial curve].
`COc1ccc(NC(=O)CN(C)S(=O)(=O)c2ccc3c(c2)CCCN3C(C)=O)cc1Cl` was tested, and the Potency was inconclusive: 2.24 µM [inhibitor, partial curve, poor fit].
For `CC1=NN(c2ccc(C)cc2)C(=O)/C1=C\C=C\c1ccccc1`, the Potency was inconclusive: 14.1 µM [inhibitor, partial curve].
With `CCOc1ccc(C(=O)c2oc3ccccc3c2NC(=O)c2cc(-c3ccccc3)on2)cc1` the Potency was inconclusive: 5.01 µM [inhibitor, partial curve, poor fit].
In the case of `COc1ccccc1-n1ncc2c(=O)[nH]c(SCC(=O)Nc3cccc(F)c3)nc21`, the Potency was inconclusive: 1.26 µM [inhibitor, full curve, poor fit].
With `COC(=O)C(Cc1c[nH]c2ccccc12)NC(=O)c1cc(-c2ccc(OC)c(OC)c2)oc1C` (stereo not given) the “activity change, negative = inhibition” value was inactive: -21.1%.
With `Cc1oc2ccc(O)c(CN3CCN(Cc4ccccc4)CC3)c2c1C(=O)Nc1cccc(Cl)c1C` the “activity change, negative = inhibition” value was inactive: -5%.
In the case of `O=C(Nc1cccc(C(=O)N2CCN(c3ccc(F)cc3)CC2)c1)c1nsc2ccccc12`, the “activity change, negative = inhibition” value was inactive: -13.6%.
With `COc1ccccc1C(=O)N/C(=C/c1ccc(Br)cc1)C(=O)N1CCCC1` the Potency was inconclusive: 5.01 µM [inhibitor, full curve, poor fit].
With `CC(=O)c1cc2ccccc2oc1=O` the “activity change, negative = inhibition” value was inactive: -18.1%.
With `CCn1c(C(C)NC(=O)c2cccs2)nc2ccccc21` (stereo not given) the Potency was inconclusive: 31.6 µM [inhibitor, partial curve].
`COc1cccc(OCCn2cc(C(=O)c3ccco3)c3ccccc32)c1` was tested, and the Potency was inconclusive: 35.5 µM [inhibitor, partial curve, poor fit].
For `CCOC(=O)c1c(NC(=O)c2ccc(S(=O)(=O)N(C)C)cc2)sc2c1CCN(C)C2`, the Potency was inconclusive: 50.1 µM [inhibitor, partial curve, poor fit].
`O=C1c2ccccc2C(=O)N1CCC#Cc1ccc2cc(CCCO)oc(=O)c2c1` was tested, and the Potency was inconclusive: 44.7 µM [inhibitor, partial curve, poor fit].
`O=c1cc(COc2cccc(C(F)(F)F)c2)nc2sc3c(n12)CCCC3` was tested, and the Potency was inconclusive: 44.7 µM [inhibitor, partial curve].
For `COc1ccc(CNC(=O)/C=C/c2cc([N+](=O)[O-])ccc2OC(F)F)cc1OC`, the “activity change, negative = inhibition” value was inactive: -0.196%.
With `COC(=O)Cc1c(OC)ccn(CCc2c[nH]c3ccccc23)c1=O` the Potency was inconclusive: 17.8 µM [inhibitor, partial curve].
In the case of `CCOc1ccc(Oc2c(/C=N/NC(N)=O)c(C)nn2-c2ccccc2)cc1`, the Potency was inconclusive: 11.2 µM [inhibitor, full curve, poor fit].
In the case of `C[C@H]1NC(=O)[C@@]2(C)[C@H](c3ccccc3)[C@H]3COc4ccccc4[C@@H]3N2C1=O`, the Potency was inconclusive: 50.1 µM [inhibitor, partial curve, poor fit].
`CC(=O)c1ccc(N2CCN(C(=O)Cn3ncc4c3-c3ccccc3OC4)CC2)cc1` was tested, and the Potency was inconclusive: 7.94 µM [inhibitor, partial curve].
`Cc1ccc(-c2nsc(NC(=O)c3oc4cc(C)c(Cl)cc4c3C)n2)cc1` was tested, and the “activity change, negative = inhibition” value was inactive: 2.7%.
For `O=C(NCC(=O)N1CCN(C(c2ccccc2)c2ccccc2)CC1)c1ccc(Br)o1`, the “activity change, negative = inhibition” value was inactive: -19.6%.
`NC(=O)[C@H]1CC2(CC(c3cccc(NC(=O)CC(c4ccccc4)c4ccccc4)c3)=NO2)CN1C(=O)CC(c1ccccc1)c1ccccc1` (stereo not given in full) was tested, and the Potency was inconclusive: 10 µM [inhibitor, partial curve].
`CC1=Nc2ccccc2/C1=C\c1nc(-c2ccccc2)oc1O` was tested, and the Potency was inconclusive: 28.2 µM [inhibitor, partial curve].
`CC1CCc2cccc3c2N1c1cc(C#N)c(C#N)cc1O3` (stereo not given) was tested, and the Potency was active: 28.2 µM.
In the case of `CN(C)C(=O)c1nc(C#N)c(N(C)C)o1`, the Potency was inconclusive: 1.78 µM [inhibitor, partial curve].
In the case of `O=C(N/N=C/C(Br)=C/c1ccccc1)c1ccncc1`, the “activity change, negative = inhibition” value was inactive: -3.75%.
In the case of `CC(Sc1nnc(Cc2ccc([N+](=O)[O-])cc2)o1)C(N)=O` (stereo not given), the Potency was inconclusive: 1 µM [inhibitor, full curve, poor fit].
With `CCOc1ccccc1CN(CCc1ccc2c(c1)OCO2)Cc1cc(OC)c(OC)cc1OC` the Potency was inconclusive: 70.8 µM [inhibitor, partial curve, poor fit].
`C/C(=N\OC(=O)c1ccc(OC(C)C)cc1)c1ccc(C)c(C)c1` was tested, and the Potency was inconclusive: 28.2 µM [inhibitor, single point].
For `O=C(/C=N/O)Nc1ccc2sc3ccccc3c2c1`, the “activity change, negative = inhibition” value was inactive: -17.7%.
For `Cc1ccc(C(=O)c2ccccc2C(=O)OCC(=O)Nc2cccc([N+](=O)[O-])c2)cc1`, the “activity change, negative = inhibition” value was inactive: -18.3%.
With `CC(=O)NCCC(=O)Nc1nc2c(ccc3ccccc32)s1` the Potency was inconclusive: 39.8 µM [inhibitor, single point].
With `CN1/C(=C/C2CC(=O)NC2=O)C(C)(C)c2ccccc21` (stereo not given) the “activity change, negative = inhibition” value was inactive: -11.4%.
With `CCn1c(CSc2nc(C)cs2)nc2cc(S(=O)(=O)N(C)C)ccc21` the “activity change, negative = inhibition” value was inactive: -0.481%.
With `Cc1ccc(S(=O)(=O)N(CCCN2CCCC2=O)Cc2cc3c(C)ccc(C)c3[nH]c2=O)cc1` the “activity change, negative = inhibition” value was inactive: -13.7%.
`O=C(CSc1n[nH]c(-c2ccccc2Cl)n1)N1CCN(c2ccc(F)cc2)CC1` was tested, and the Potency was inconclusive: 112 µM [inhibitor, partial curve, poor fit].
With `Cc1ccc(C)c(CN2C(=O)c3ccccc3Sc3ccc(C(=O)NCCCOC(C)C)cc32)c1` the Potency was inconclusive: 3.16 µM [inhibitor, partial curve].
With `O=C(Nc1ccc(O)c(-c2nc3ccccc3o2)c1)c1cccs1` the “activity change, negative = inhibition” value was inactive: -28.9%.
In the case of `C[C@@H]1CN([C@@H](C)CO)C(=O)c2cc(NC(=O)Nc3ccc4c(c3)OCO4)ccc2O[C@H]1CN(C)S(=O)(=O)c1ccc(F)cc1`, the Potency was inconclusive: 39.8 µM [inhibitor, partial curve, poor fit].
For `COc1ccc(CCNC(=O)CSc2ccccn2)cc1OC`, the Potency was inconclusive: 7.94 µM [inhibitor, single point].
